# Data reported in the supplement of paper PMC11732987, “Enantioselective OTUD7B fragment discovery through chemoproteomics screening and high-throughput optimisation” (Communications Chemistry, 2025).
# The list shows a part of the results. The data scatter; read single values as rough.
# Biological target: T1, HERC2 C1825 (UniProt O95714)
# T1 sequence (whole entry): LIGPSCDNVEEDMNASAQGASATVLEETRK
# Test: log2 mean competition ratio of IA-DTB cysteine labelling (DMSO/compound) (log2 ratio); higher = stronger cysteine engagement by compound
# Conditions: 50 µM; treatment time: 4 h; cell line lysate: HEK293T
# Method: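 IA-DTB competitive cysteine chemoproteomics in HEK293T RIPA lysate. Lysates were treated with compound 29 or 30 at 50 or 200 µM for 4 h, then IA-DTB (500 µM, 1 h), trypsin-digested, NeutrAvidin-enriched and analysed by diaPASEF. Competition ratio = intensity DMSO / intensity compound (n=4 treated, n=64 DMSO); binding: mean log2 CR ≥ 1 and p ≤ 0.05 plus QC filters. Target is the cysteine site.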
row,SMILES,log2 mean competition ratio
1,O=C(CCl)N[C@@H]1CCCc2ccccc21,-0.457
2,O=C(CCl)N[C@H]1CCCc2ccccc21,-0.269

# Same assay, conditions: 200 µM; treatment time: 4 h; cell line lysate: HEK293T
row,SMILES,log2 mean competition ratio
1,O=C(CCl)N[C@@H]1CCCc2ccccc21,-0.0786
2,O=C(CCl)N[C@H]1CCCc2ccccc21,0.0653
